Patent publication US20140044644A1
No constants are given. Whether binding was seen depends on the method and setting. For some of these results: Binding seen in cells or lysates may run through a third protein. Some entries that bind do so weakly or less than the wild type.

Amino acid sequences for entries named in this document (tags omitted). A change or cut given only in a name is not applied to a line headed by its entry. Chains listed by the source or under a name are the forms on record and can include a tag or linker. Residues count along the entry.
UniProt P05067: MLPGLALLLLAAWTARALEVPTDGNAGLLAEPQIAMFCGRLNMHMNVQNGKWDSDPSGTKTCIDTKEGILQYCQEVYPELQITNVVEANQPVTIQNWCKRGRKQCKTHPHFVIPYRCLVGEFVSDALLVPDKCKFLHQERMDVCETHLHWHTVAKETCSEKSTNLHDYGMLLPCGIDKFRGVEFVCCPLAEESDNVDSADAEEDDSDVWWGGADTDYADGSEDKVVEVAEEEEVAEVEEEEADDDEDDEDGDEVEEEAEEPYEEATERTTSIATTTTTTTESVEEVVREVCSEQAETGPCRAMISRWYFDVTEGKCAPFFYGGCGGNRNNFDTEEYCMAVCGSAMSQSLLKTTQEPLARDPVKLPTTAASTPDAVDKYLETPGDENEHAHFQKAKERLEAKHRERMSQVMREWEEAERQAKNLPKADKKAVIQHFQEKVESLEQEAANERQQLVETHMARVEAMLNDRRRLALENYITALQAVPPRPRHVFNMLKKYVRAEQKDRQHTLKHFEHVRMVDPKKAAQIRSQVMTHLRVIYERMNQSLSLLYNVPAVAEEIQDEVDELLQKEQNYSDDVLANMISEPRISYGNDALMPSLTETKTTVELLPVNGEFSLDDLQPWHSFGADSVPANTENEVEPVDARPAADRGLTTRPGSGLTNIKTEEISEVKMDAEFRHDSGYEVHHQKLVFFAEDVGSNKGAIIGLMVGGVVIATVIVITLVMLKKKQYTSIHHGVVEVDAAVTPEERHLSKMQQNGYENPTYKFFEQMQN
APP in human brain homogenate: residues 18-770 of P05067
APP CTF-50 peptide (AICD50), synthetic peptide corresponding to the 50-amino acid cytoplasmatic fragment of APP: residues 721-770 of P05067
rat recombinant ankG (ankyrin G) (O70511, form named): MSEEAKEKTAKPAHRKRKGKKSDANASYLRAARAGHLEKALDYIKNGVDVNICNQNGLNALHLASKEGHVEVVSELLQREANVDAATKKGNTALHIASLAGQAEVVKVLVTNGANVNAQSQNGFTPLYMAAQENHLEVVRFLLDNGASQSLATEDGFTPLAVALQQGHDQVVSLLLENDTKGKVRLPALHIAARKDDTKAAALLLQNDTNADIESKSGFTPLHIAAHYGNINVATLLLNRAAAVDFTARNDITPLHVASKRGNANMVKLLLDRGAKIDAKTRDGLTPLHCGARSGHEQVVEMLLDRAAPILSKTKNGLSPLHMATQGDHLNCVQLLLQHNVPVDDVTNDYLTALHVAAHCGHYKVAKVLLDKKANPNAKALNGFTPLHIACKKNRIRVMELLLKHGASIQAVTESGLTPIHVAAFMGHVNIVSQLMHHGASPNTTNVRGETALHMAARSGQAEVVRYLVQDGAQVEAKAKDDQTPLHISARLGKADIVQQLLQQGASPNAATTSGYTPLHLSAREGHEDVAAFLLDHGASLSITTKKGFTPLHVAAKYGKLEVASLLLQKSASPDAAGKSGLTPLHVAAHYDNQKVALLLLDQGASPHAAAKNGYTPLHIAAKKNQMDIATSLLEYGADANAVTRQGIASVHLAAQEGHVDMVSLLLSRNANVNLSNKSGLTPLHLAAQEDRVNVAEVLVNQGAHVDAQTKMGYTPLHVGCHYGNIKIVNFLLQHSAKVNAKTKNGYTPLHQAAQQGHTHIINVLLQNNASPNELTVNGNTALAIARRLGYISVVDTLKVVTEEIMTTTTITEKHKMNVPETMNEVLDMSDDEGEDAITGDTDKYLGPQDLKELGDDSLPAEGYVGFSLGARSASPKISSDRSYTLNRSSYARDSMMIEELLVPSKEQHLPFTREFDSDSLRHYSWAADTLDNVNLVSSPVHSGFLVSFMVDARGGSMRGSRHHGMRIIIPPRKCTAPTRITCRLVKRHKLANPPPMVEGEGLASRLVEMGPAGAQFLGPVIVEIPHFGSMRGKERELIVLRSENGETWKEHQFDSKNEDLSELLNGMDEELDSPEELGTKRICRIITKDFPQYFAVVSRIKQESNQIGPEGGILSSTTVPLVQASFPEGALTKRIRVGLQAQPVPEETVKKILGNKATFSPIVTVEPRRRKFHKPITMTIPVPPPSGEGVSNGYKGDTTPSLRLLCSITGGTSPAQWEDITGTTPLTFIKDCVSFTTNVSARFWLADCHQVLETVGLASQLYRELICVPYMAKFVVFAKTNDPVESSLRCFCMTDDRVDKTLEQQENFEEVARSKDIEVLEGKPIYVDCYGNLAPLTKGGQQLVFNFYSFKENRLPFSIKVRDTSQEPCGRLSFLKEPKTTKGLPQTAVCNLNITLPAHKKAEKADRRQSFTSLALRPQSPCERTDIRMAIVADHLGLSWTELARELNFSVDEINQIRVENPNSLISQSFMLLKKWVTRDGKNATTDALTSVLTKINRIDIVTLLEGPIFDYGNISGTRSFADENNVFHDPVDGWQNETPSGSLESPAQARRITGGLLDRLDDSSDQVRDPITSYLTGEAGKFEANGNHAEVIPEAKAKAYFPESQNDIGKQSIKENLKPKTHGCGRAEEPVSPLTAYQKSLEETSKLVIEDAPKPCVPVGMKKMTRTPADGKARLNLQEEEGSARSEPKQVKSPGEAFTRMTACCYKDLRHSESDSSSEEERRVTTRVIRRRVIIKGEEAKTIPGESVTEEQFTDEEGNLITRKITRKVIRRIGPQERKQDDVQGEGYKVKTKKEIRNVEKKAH

Legend:
[1] = target: APP CTF-50 peptide (AICD50), synthetic peptide corresponding to the 50-amino acid cytoplasmatic fragment of APP (UniProt P05067); assay: ELISA, AICD50 peptide coated, ankG in solution (FIG. 6d)
[2] = target: APP CTF-50 peptide (AICD50), synthetic peptide corresponding to the 50-amino acid cytoplasmatic fragment of APP (UniProt P05067); assay: ELISA, AICD50 peptide coated, recombinant ankG in solution
[3] = target: APP in human brain homogenate (human) (UniProt P05067); assay: co-immunoprecipitation from human frontal cortex (FIG. 6a) and AD hippocampus (FIG. 6e), Western blot
[4] = target: APP in human brain homogenate (human) (UniProt P05067); assay: co-immunoprecipitation from human brain homogenate, Western blot

| binding [1] | binding [2] | binding [3] | binding [4] | Substance |
| --- | --- | --- | --- | --- |
| binds | binds | – | – | rat recombinant ankG (ankyrin G) (from UniProt O70511 1-1806) |
| – | – | binds | binds | ankG in human brain homogenate (from UniProt Q12955 1-4377) |
